Measurements as given in article PMC7042714.
These are yes or no findings as the source states them, for the method shown. For some of these results: Binding seen in cells or lysates may run through a third protein. Some entries that bind do so weakly or less than the wild type.

Protein sequences, listed by entry. Tags and fused reporters are not part of them.
UniProt Q9BVL2: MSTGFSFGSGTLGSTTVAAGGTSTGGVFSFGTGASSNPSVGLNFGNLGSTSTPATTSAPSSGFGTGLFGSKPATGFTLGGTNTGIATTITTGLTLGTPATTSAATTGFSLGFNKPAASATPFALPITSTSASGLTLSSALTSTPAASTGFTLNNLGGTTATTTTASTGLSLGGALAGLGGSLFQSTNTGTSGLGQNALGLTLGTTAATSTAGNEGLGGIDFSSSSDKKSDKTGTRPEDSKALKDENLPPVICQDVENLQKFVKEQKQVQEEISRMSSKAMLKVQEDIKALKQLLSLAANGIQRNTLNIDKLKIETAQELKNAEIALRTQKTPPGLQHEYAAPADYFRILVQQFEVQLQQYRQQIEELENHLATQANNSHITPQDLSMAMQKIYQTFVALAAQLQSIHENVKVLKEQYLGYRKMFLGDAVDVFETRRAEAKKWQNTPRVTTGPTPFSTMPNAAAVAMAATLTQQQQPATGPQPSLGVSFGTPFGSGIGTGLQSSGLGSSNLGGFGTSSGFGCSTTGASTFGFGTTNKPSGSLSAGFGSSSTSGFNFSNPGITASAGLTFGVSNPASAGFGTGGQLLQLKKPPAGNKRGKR
UniProt P37198: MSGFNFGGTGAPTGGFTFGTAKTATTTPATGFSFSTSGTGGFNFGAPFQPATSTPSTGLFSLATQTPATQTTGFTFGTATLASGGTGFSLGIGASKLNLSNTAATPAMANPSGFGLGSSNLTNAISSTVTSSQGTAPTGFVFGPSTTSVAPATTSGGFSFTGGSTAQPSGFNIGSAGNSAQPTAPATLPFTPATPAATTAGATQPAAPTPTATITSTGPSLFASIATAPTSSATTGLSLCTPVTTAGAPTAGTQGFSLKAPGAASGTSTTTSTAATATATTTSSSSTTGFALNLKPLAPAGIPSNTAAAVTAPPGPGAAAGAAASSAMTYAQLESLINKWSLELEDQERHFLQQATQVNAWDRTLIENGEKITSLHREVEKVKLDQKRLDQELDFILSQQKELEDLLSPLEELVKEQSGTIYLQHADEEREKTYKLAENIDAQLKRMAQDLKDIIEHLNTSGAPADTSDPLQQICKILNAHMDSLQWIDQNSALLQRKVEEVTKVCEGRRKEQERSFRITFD
UniProt Q92621: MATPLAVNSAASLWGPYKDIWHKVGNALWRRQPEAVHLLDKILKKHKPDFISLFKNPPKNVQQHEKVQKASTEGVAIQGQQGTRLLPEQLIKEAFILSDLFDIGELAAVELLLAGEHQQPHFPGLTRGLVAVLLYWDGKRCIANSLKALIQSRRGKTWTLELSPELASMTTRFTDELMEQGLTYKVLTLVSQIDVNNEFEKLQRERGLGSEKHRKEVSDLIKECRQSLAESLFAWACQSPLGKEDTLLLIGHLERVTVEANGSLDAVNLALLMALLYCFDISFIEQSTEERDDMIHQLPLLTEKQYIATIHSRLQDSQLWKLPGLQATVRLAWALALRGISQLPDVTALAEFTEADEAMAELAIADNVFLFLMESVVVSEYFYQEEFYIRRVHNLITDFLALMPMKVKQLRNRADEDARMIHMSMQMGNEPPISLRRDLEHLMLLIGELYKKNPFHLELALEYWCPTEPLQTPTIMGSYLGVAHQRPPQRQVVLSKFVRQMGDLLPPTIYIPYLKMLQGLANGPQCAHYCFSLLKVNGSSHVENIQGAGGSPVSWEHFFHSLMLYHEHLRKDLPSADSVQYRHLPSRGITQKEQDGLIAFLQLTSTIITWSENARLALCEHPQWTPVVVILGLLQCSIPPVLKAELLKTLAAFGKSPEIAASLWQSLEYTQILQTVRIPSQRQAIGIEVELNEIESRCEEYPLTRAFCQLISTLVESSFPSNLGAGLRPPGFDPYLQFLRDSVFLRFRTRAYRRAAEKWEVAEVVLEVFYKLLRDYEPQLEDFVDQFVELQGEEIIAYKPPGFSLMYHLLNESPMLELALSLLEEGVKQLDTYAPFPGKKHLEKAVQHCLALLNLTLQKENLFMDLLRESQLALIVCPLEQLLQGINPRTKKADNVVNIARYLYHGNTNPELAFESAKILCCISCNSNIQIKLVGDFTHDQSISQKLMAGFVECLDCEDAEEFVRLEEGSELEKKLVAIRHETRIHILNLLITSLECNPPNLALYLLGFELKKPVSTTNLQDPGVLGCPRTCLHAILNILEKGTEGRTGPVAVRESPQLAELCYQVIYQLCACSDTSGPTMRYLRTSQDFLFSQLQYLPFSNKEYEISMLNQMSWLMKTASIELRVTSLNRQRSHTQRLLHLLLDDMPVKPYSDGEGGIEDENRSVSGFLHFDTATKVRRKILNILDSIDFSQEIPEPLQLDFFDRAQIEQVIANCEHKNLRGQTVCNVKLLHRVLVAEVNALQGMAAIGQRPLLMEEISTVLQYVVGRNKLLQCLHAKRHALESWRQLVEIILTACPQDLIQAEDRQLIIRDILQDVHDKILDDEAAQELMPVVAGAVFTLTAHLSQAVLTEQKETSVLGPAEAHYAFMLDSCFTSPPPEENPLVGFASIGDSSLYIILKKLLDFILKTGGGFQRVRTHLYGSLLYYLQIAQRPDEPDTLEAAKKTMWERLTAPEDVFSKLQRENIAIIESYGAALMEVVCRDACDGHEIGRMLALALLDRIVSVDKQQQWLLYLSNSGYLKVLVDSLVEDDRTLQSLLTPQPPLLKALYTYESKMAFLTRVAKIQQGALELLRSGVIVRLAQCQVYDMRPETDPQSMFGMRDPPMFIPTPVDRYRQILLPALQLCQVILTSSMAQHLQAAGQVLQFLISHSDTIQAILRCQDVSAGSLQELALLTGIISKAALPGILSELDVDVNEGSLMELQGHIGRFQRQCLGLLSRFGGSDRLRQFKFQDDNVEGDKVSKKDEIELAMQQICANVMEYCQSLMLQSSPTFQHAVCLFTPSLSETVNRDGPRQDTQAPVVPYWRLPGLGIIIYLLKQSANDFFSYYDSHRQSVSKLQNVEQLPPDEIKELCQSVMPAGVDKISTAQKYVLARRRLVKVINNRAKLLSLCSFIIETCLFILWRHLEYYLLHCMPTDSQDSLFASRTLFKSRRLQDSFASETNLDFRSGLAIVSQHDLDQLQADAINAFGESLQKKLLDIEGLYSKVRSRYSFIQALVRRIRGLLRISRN

Assays:
[1] = molecular target: T1, NUP93 (human (endogenous in HeLa)) (UniProt Q8N1F7); assay: SEC; SEC-SWATH-MS: native extract (0.5% NP-40, freeze-thaw) of HeLa CCL2 cells synchronized in interphase (double thymidine block) or mitosis (thymidine, nocodazole, shake-off); SRT-C-SEC 500 column, 50 mM HEPES pH 7.5, 150 mM NaCl, 0-4°C; 65 fractions profiled by SWATH-MS, triplicates; association inferred from co-elution
T1 sequence: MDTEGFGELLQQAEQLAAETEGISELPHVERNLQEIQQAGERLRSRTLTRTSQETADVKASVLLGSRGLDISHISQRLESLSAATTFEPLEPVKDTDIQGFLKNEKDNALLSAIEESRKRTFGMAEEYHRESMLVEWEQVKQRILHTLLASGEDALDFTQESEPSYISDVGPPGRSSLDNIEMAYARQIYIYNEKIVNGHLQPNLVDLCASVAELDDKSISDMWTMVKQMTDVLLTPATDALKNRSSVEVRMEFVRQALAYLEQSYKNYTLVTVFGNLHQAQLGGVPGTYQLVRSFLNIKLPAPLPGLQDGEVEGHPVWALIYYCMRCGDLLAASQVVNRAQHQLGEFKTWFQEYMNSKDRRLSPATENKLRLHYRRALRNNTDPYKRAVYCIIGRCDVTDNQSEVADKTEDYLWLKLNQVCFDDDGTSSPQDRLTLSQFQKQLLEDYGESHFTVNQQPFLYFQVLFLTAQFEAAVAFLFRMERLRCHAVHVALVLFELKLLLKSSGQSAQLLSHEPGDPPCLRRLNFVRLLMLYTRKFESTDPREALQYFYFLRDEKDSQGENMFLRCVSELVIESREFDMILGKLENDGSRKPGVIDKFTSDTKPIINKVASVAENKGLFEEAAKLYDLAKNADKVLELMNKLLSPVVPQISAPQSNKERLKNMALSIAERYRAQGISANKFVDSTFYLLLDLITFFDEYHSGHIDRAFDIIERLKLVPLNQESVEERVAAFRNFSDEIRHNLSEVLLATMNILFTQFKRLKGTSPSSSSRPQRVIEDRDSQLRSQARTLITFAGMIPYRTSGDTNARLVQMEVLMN

[2] = molecular target: HA-Strep-tagged NUP58 (UniProt Q9BVL2); assay: pull-down; HA-Strep-NUP58 captured on StrepTactin Sepharose from lysate of HeLa Flp-In T-REx cells synchronized in interphase or mitosis; 25 mM Tris-HCl pH 7.6, 125 mM NaCl, 2 mM MgCl2, 1 mM DTT, 0.5% NP-40, 4°C; biotin elution; immunoblotting; HA-Strep-GFP as control bait

| Substance | binding [1] | binding [2] |
| --- | --- | --- |
| NUP58 (endogenous) (from UniProt Q9BVL2 1-599) | binds |  |
| NUP62 (from UniProt P37198 1-522) | binds | binds |
| NUP205 (from UniProt Q92621 1-2012) | binds |  |
